Source: patent US20080153888A1, “ALPHA-2-DELTA LIGAND/NSAID THERAPEUTIC TREATMENT OF LOWER URINARY TRACT DISORDERS” (Recordati Ireland Limited, priority 2006, published 2008)

Tested on: anesthetized rats with acetic acid bladder infusion (animal model of overactive bladder)
Experiment: Cystometry in anesthetized rats with acetic acid bladder infusion;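 also: Single-filling cystometrograms via bladder-dome catheter, basal values taken after 60 min saline infusion, BVC as mL infused until micturition, MP as peak intravesical pressure (mm Hg)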
Format: in vivo, rat
Settings: single drug; for % Bladder Volume Capacity (vs basal) ± S.E.: cumulative administration

## COc1ccc2cc([C@H](C)C(=O)O)ccc2c1 [Naproxen, naproxen]
Dose 0.3 mg/kg i.v.
  % Bladder Volume Capacity (vs basal) ± S.E.: 29 ± 8%
Dose 1.0 mg/kg i.v.
  % Bladder Volume Capacity (vs basal) ± S.E.: 36 ± 8%
Dose 3 mg/kg i.v.
  % Bladder Volume Capacity (vs basal) ± S.E.: 41 ± 7%
Dose 10 mg/kg i.v.
  % Bladder Volume Capacity (vs basal) ± S.E.: 48 ± 11%
Dose 30 mg/kg i.v.
  % Bladder Volume Capacity (vs basal) ± S.E.: 60 ± 12%
i.v., cumulative dose-response
  ED60 (CL 95%) of recovery of Bladder Volume Capacity to basal value: 44.7 (0.8-88.6)
